# Results are given in words; binding and its absence hold for the method and conditions named. Some entries that bind do so weakly or less than the wild type.
# Chains of the proteins cited; added tags and fusions are not shown. Lines headed by an entry give the natural chain unless they say otherwise; changes in a name come on top. A line that says so, or that is headed by a name, gives the form on record, which may keep a tag or linker.
# mesothelin protein (Acrobiosystems, cat #MSN-H5223) (Q13421, form named): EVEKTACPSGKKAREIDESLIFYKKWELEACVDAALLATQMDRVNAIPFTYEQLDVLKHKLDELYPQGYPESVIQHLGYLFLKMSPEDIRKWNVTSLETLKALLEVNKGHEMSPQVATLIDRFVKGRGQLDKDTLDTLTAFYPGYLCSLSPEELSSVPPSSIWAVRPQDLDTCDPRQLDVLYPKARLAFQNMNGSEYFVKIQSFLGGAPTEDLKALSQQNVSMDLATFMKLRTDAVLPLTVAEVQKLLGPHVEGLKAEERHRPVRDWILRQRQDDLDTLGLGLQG
# Tests used:
# [1] = biological target: mesothelin protein (Acrobiosystems, cat #MSN-H5223) (UniProt Q13421); test: screening ELISA of hybridoma clones
# [2] = biological target: mesothelin protein (Acrobiosystems, cat #MSN-H5223) (UniProt Q13421); test: ELISA on coated mesothelin peptide
binding [1],binding [2],Binder
binds,binds,"5A9 antibody (antibody, V domains shown) VH: EVQLEESGPAVIKPSQSLSLTCIVSGFSITSSSYCWHWIRQPPGKGLEWMGRICYEGSIYYSPSIKSRFTISRDTSLNKFFIQLSSVTNEDTAMYYCSRENRLLKDAMDYWGQGTSVTVSS VL: DIVMTQSPSSLAVSAGEKVTMSCKSSQSLLSSRTRKNYLAWYQQKPGQSPKLLIYWASTRESGVPDRFTGSGSGTDFTLTISSVQAEDLAVYYCKQSYNLRTFGGGTKLEIK"
binds,binds,"9E11 antibody (antibody, V domains shown) VH: QVQLKESGPGLVKPSQSLSLTCTVTGYSITSDYAWNWIRQFPGNKLEWMGYISYSGSTRYNPSLKSRISITRDTSKNQFFLQLNSVTTEDTATYYCARGAAGFAYWGQGTLVTVSA VL: DIVMTQSPASQSASLGESVTITCLASQTIGTWLAWYQQKPGKSPQLLIYAATSLADGVPSRFSGSGSGTEFSFKISSLQAEDFVSYYCQQLYSTPWTFGGGTKLEIK"
binds,binds,"4G11 antibody (antibody, V domains shown) VH: EVQLQQSGPELVKTGDSVKISCKASGYSFTGYYMHWVKQSHGKSLEWIGYISCYNGATSYSQKFKGKATFTVDTSSSTAYMQFNSLTSEDSAVYYCARWDRDWFAYWGQGTLVTVSA VL: DIVMTQSHKFMSTSVGDRVSITCKASQDVGIAVAWYQQKPGQSPKLLIYWASTRHTGVPDRFTGSGSGTDFTLTISNVQSEDLADYFCQQYSSYPFTFGSGTKLEIK"

# From patent US20250129178A1
